# Assay results reported in patent publication US6387605B1, “Co-developers for black-and-white photothermographic elements” (Eastman Kodak Company, priority 1999, dated 2002).
# Key:
# [1] = Sensitometry of photothermographic elements, co-developer incorporated in the photothermographic emulsion layer (Example 4); set-up: key to AC-3 / AC-1 / Speed 2: *: Speed-2, AC-1, and AC-3 were too low to measure
# [2] = Sensitometry of photothermographic elements, co-developer added to topcoat solution (Examples 1-3)
# [3] = in 60 g photothermographic emulsion: 0.083 g I-01, 0.030 g CI-01, 0.038 g CI-02, 0.020 g N-Ethyl-rhodanine (sample 4-5)
# [4] = 10 mg in 20 g topcoat solution, developed 15 seconds at 255° F.
# [5] = 89 mg in 20 g topcoat solution, developed 15 seconds at 255° F.
# [6] = 114 mg in 20 g topcoat solution, developed 15 seconds at 255° F.
# [7] = Example 2, in 20 g topcoat solution: 83 mg I-01, 17 mg I-02, 112 mg I-04, 8.8 mg CN-08, 8.0 mg CN-14, developed 15 seconds at 255° F.
# [8] = Example 3, in 20 g topcoat solution: 83 mg I-01, 17 mg I-02, 112 mg I-04, 8.8 mg CN-08, 8.0 mg CN-14, developed 25 seconds at 255° F.
# [9] = 0.040 g in 60 g photothermographic emulsion (sample 4-6)
# [10] = Example 4, in photothermographic emulsion layer
structure (smiles),measurement,setting,value
"CCO/C=C1\SC(=S)N(Cc2ccccc2)C1=O [CI-01, 5-(Ethoxymethylene)-3-(phenylmethyl)-2-thioxo-4-thiazolidinone, reference compound]",AC-3,[1]; [3],*
same,Dmax,[1]; [3],2.678
same,Dmin,[1]; [3],0.532
same,Dmax,[2]; [4],2.920
same,Dmin,[2]; [4],0.393
same,Speed-2,[2]; [4],1.720
same,Dmax,[2]; [5],2.185
same,Dmin,[2]; [5],0.881
same,Speed-2,[2]; [5],0.758
"CCO/C=C1\SC(=S)N(CC)C1=O [CI-02, 5-(Ethoxymethylene)-3-ethyl-2-thioxo-4-thiazolidinone]",AC-1,[1]; [3],*
same,AC-3,[1]; [3],*
same,Dmax,[1]; [3],3.062
same,Dmin,[1]; [3],1.005
same,Dmax,[2]; [6],2.528
same,Dmin,[2]; [6],0.862
same,Speed-2,[2]; [6],1.250
"COC(=O)/C(C#N)=C\[O][NaH2-2] [CN-14, reference compound]",Dmax,[2]; [7],4.753
same,Dmin,[2]; [7],0.179
same,Dmax,[2]; [8],4.987
same,Dmin,[2]; [8],0.201
"CCOC=C1C(=O)c2ccccc2C1=O [Compound I-01, 2-(Ethoxymethylene)-1H-indene-1,3(2H)-dione]",Dmax,[1]; [3],4.668
same,Dmin,[1]; [3],0.180
CCN1C(=O)CSC1=S [N-Ethyl-rhodanine],AC-1,[1]; [9],*
same,AC-3,[1]; [9],*
same,Dmax,[1]; [9],4.936
same,Dmin,[1]; [9],4.140
same,Speed 2,[1]; [9],*
same,Dmin (in words; appears to generate a fogging agent),[1]; [10],high
same,contrast enhancement (in words),[1]; [10],no contrast enhancement
same,AC-1,[1]; [3],*
same,AC-3,[1]; [3],*
same,Dmax,[1]; [3],4.638
same,Dmin,[1]; [3],3.373
same,Speed 2,[1]; [3],*
